Data taken from PubChem BioAssay AID1159506, deposited by NCATS (2015).

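Luminescence from an EWS-FLI1 target-promoter (NR0B1) reporter, set against a CMV-promoter reporter, two days after silencing single genes in TC32 Ewing sarcoma cells.
Each siRNA was applied at 20 nM.
A z-score of the log NR0B1-over-CMV signal, less the median of siRNAs with the same seed; more negative means a stronger specific loss of the NR0B1 reporter.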

The strongest results of the screen are mostly left out here.
Sequences are the guide (antisense) strand, without overhang.

| # | Sequence | gene | seed-corrected z-score |
|---|---|---|---|
| 1 | `UGUAGUCCUAGAGUCAUGG` | CNDP1 | -0.009552 |
| 2 | `UUUGUAUGCAGAGCAGCAC` | CHI3L1 | 1.366 |
| 3 | `UCAUUCAGGAUUUCUGUCG` | PBX1 | 0.005577 |
| 4 | `UAAACUGGAAUUCGGUUGC` | RPS10 | 1.091 |
| 5 | `UCUCCCAACACUGAAAGUC` | GINS3 | -0.06785 |
| 6 | `UAGUCGCUGAAUAAUAUCC` | FAM120A | 0.1575 |
| 7 | `UUAGAAUCCGUCUUUAUCG` | MATK | -0.3353 |
| 8 | `UACUGGUUGAUAUCCAGGU` | PROM2 | 0.3079 |
| 9 | `UGAAUAACCGUGACAGAAC` | CCDC79 | 0.3113 |
| 10 | `UGCACUUAAAUGGUGAUUC` | PDE1C | -0.2947 |
| 11 | `UAGUGUAGAGAAUCGAGGC` | PTPRT | 0.1115 |
| 12 | `AUAGAUGUUAUCGCCUUUG` | UBE2E1 | 0.2935 |
| 13 | `UGAAUUGUUGCAGUUGUGG` | GPR108 | -0.05278 |
| 14 | `AUAGCUAUGAGAUGAAACC` | FRA10AC1 | 0.5831 |
| 15 | `UAUGCUUAACAUGUAAUUC` | BHLHB9 | -0.2893 |
| 16 | `AUCAGUACACGGCUUAUUC` | CASD1 | 0.7113 |
| 17 | `AUUCUGUCGACGUAGAGCC` | ZNF821 | -0.3738 |
| 18 | `UUCGUUUAGUUUUUCAUCC` | WDR75 | -0.7797 |
| 19 | `UCACUUGUCCUUUCCAUAC` | CTAGE15 | 0.8907 |
| 20 | `AAAGGAGGCAGUGGUAAUG` | TMEM128 | 0.03127 |
| 21 | `UUGGACUCCAGUCCUUUCA` | OLFM1 | -0.318 |
| 22 | `ACAGGUCUGAUUAUAGCUC` | ART5 | 0.008431 |
| 23 | `UUUGGAUCAACUCGUUUUG` | DCLRE1A | 0.2352 |
| 24 | `AGAGCUUCCGUAUCUUCCC` | CNTNAP5 | -0.5572 |
| 25 | `UCCGCUUGAUGAAUGGUUC` | MINA | -0.006421 |
| 26 | `UCGGAUACCUGUGAAGAGG` | ARAP3 | -0.02742 |
| 27 | `AGAUCAUCUAGGGUGUUUG` | S100G | -0.02368 |
| 28 | `UAGAGUUUGGUUGCAGACC` | SLN | 0.7697 |
| 29 | `UUCGUAAUGUCCUUAGAGC` | SAMD9 | -0.1455 |
| 30 | `UAGGUCACCAUCGCAUAUG` | RFC1 | -0.1169 |
| 31 | `UAUGUUUCUAUCCUUGUAU` | TAS2R41 | -0.03158 |
| 32 | `UGUACAUUAAAAGUCUUCC` | ZNF578 | 0.1387 |
| 33 | `UCUGCGACAAAGGAUAAGA` | LMO3 | 0.97 |
| 34 | `UUUGGAACUCGUUUCUAGG` | LIPJ | 0.002151 |
| 35 | `UCUGAGUUGACCUGCAUCC` | VSIG8 | -0.9246 |
| 36 | `AAAAGUCAGAUAUAGAGCU` | UBE2HP1 | 0.1038 |
| 37 | `AAUUCUGAAAGCAUCUGCC` | CCDC125 | 0.144 |
| 38 | `AUUCGGAUAAUCUCAACUC` | STAMBP | 0.7121 |
| 39 | `UUUGGAGACGUGGUCGUUG` | VGLL4 | 0.157 |
| 40 | `UAUGGUAUAGACUGCAGCC` | SLC35A1 | 0.7928 |
| 41 | `AUGGAAAUAACAUAGGGUU` | NGFRAP1 | 1.22 |
| 42 | `UUCUUGUUCAUGCAGAUGU` | FGF8 | 1.07 |
| 43 | `UGCUGUAAUAUCACAGUGC` | SUCLA2P1 | -0.7413 |
| 44 | `AAACUGGACUGUUUAUUCC` | WDR45B | -0.4201 |

The first 3 entries again:

UGUAGUCCUAGAGUCAUGG against CNDP1 read seed-corrected z-score -0.009552.
UUUGUAUGCAGAGCAGCAC against CHI3L1 read seed-corrected z-score 1.366.
UCAUUCAGGAUUUCUGUCG against PBX1 read seed-corrected z-score 0.005577.